PMC2923182
No constants are given. Whether binding was seen depends on the method and setting. In cells and extracts the contact can be indirect. Binding can be weak; no strength is given.

The chains behind the UniProt entries cited, without tags or fusion partners. Where a name states a change or a piece, a line headed by the entry shows the natural chain unless it says otherwise.
UniProt P41597: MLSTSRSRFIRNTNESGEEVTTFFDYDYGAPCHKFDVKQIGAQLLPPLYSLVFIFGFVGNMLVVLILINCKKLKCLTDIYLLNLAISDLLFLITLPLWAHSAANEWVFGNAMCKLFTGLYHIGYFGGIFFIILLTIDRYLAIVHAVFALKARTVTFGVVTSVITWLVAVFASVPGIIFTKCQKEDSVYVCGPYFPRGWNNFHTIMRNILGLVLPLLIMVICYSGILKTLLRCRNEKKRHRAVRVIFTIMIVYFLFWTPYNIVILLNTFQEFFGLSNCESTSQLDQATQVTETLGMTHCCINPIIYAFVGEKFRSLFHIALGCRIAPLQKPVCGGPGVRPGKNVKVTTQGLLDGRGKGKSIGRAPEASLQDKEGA
UniProt P21333: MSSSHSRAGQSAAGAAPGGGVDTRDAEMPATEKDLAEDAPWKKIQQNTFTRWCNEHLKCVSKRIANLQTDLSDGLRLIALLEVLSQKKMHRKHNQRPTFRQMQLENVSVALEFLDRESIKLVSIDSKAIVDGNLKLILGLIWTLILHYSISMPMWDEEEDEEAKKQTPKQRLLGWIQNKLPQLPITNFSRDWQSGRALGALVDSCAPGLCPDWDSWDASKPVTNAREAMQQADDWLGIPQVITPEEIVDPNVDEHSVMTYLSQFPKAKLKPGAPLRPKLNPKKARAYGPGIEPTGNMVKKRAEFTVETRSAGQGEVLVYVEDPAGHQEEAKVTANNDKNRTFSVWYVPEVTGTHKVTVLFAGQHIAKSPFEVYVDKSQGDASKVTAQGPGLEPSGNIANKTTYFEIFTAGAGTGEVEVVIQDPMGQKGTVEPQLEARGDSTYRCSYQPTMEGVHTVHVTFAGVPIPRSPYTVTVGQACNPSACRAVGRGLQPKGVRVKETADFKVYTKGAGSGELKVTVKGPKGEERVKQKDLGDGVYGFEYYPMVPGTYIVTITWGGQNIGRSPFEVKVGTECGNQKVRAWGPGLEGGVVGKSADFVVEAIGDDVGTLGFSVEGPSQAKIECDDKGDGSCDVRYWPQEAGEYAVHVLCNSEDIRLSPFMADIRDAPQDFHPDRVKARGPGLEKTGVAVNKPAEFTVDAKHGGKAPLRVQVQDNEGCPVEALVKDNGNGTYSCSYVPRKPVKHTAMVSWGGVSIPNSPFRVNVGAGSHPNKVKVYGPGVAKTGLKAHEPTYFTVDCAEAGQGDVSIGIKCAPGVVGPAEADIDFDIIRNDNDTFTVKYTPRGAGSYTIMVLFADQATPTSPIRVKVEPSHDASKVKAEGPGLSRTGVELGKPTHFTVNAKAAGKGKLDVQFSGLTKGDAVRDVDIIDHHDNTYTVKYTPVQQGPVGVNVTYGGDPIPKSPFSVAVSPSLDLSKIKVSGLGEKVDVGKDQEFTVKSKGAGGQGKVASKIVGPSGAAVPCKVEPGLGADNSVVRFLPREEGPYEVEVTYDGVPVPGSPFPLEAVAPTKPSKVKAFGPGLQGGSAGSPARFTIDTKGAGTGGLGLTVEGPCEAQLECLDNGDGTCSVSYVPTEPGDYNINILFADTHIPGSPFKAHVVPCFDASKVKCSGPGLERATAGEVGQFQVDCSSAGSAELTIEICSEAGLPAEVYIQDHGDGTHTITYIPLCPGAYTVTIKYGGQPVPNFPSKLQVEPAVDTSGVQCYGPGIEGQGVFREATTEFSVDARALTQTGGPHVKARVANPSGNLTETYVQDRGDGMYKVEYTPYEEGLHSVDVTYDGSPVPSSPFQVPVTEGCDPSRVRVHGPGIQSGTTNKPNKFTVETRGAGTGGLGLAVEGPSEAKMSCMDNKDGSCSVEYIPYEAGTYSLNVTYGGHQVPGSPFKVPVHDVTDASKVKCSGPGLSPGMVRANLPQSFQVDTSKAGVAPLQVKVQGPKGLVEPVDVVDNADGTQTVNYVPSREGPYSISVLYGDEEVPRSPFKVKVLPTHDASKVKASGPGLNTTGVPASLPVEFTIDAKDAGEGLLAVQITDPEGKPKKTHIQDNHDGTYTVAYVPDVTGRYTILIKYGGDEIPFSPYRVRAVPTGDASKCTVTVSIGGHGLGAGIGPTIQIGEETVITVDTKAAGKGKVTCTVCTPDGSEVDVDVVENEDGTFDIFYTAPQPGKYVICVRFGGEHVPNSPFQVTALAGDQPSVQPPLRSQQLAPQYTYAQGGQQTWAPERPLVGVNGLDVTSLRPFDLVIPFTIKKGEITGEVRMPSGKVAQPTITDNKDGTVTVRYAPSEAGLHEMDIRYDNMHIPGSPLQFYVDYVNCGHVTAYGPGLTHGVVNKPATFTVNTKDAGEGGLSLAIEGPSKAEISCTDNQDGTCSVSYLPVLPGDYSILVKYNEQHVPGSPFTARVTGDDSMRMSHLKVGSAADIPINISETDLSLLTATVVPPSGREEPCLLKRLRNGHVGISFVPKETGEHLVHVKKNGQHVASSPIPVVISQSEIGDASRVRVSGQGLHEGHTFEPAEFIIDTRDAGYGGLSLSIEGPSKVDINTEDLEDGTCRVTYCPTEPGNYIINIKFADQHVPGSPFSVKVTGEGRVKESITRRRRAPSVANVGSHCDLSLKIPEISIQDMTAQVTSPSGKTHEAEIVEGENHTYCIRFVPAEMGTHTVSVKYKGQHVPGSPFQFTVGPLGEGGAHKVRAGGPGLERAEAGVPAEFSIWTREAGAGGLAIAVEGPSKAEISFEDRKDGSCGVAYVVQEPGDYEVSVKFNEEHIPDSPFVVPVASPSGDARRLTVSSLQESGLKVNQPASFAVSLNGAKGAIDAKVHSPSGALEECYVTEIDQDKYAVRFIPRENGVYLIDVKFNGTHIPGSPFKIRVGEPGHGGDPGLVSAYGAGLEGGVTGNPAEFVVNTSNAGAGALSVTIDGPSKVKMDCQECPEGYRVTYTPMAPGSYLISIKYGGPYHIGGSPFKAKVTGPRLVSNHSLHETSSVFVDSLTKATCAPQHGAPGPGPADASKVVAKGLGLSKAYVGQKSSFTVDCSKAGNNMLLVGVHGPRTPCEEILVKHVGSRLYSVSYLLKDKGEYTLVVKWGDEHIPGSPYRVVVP

Target: Myc-CCR2B47, Myc-tagged CCR2B tail fragment translated in vitro from pGBKT7-CCR2B47 (UniProt P41597)
Assay: co-IP; in vitro translated Myc-CCR2B47 mixed with lysates of untransfected A7 or M2 cells in 1% Brij 96 V lysis buffer; immunoprecipitation with anti-c-Myc, blot for FLNa

“Filamin A, full length, in A7 cells (from UniProt P21333 1-2647)” was tested, and the binding was “binds”.
